The list shows a part of the results.
What follows are sequences tested against OsWRKY34 (Oryza sativa, UniProt Q0JBA9 1-250) (assay: protein-binding microarray (RPBM); PBS, 2% BSA, 51.3 ng/ul salmon testes DNA, 50 uM zinc acetate, 200 nM TF, 25 C, 1 h; high values mean tight binding). Details: protein: recombinant; tags: N-terminal polyhistidine and DsRed monomer fusion (pET32a); label: CyDye5-dUTP incorporated in the synthesized complementary strand; 3' TTTTT single-stranded linker to array surface; dsDNA, one strand shown.
Procedure, shortened: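 Transcription factors were made in E. coli BL21-CodonPlus as N-terminal fusions to a polyhistidine tag and DsRed, then purified on Ni–NTA. After primer extension with Cy5-dUTP and blocking with 2% BSA, a custom Agilent array was exposed for 1 h at 25 °C to 200 nM protein in PBS, 2% BSA, salmon testes DNA and 50 µM zinc acetate. Washed arrays were scanned on an Axon 4000B, and the binding signal is per-feature fluorescence intensity in arbitrary units.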

Sequences of proteins named here, by UniProt entry; tags and fusion partners are left off.
UniProt Q0JBA9, entry or part of it: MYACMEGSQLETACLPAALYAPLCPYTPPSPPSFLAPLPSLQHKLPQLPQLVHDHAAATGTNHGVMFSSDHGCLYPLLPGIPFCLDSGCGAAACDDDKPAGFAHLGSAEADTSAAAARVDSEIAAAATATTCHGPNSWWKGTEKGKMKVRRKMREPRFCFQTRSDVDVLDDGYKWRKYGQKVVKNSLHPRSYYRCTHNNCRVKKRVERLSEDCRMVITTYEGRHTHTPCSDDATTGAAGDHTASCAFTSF

First: CATTATTAAAATATATATGTGTTACATTCGGTATTATATTCGGAGTCACCTAGTGCAG
Second: TCTCGTTTCGTCGTCGCCACCATTATAATCTCATCATGACCGGAGTCACCTAGTGCAG
The binding signal of the first is lower: 8650 fluorescence intensity (a.u.) for the first, 12600 fluorescence intensity (a.u.) for the second.

Compared with “TTACGGTTGCCTGTATTTGTTGTGCATCATGATCATTCAGCGGAGTCACCTAGTGCAG”, “CCAGCCCATTAGGCAGCCCATCACAGGTCACAGCCCAAAACGGAGTCACCTAGTGCAG” is lower in binding signal: 11900 fluorescence intensity (a.u.) for the first, 9570 fluorescence intensity (a.u.) for the second.

First: GATTTTTTTCACTTACACAAACCTGGACTGCAGTCCACTACGGAGTCACCTAGTGCAG
Second: TTCGACTTGACTTGACTTAGTTTACGACCTTGTATTTCCCCGGAGTCACCTAGTGCAG
The binding signal of the first is higher: 8530 fluorescence intensity (a.u.) for the first, 8400 fluorescence intensity (a.u.) for the second.

Going from “GTCTGAAATGTCTCACACGCTAGCTGCCAAATACATCGGTCGGAGTCACCTAGTGCAG” to “TTTTATTCAATATATGTATATAGGTATCTTTGGTTGTTTTCGGAGTCACCTAGTGCAG”, the binding signal falls from 9340 fluorescence intensity (a.u.) to 8320 fluorescence intensity (a.u.).

Going from “GGGGATCCCTATTTCTCTGTATATGTCCTTTTGTAGCCTTCGGAGTCACCTAGTGCAG” to “AACTCTTCAGTAACCCCACCAGCCCACCTTTCCGGTCCAACGGAGTCACCTAGTGCAG”, the binding signal falls from 10800 fluorescence intensity (a.u.) to 9510 fluorescence intensity (a.u.).

Going from “GGCTTCAGTTGTCCTTCCAGCTTCACTGGCCTTAACCGGACGGAGTCACCTAGTGCAG” to “CATATGCTAATTACTCCATCCATTTTATATTATATATCATCGGAGTCACCTAGTGCAG”, the binding signal rises from 8940 fluorescence intensity (a.u.) to 9100 fluorescence intensity (a.u.).

Going from “CGTCGCCTCGCCGTCTGCCGCTGCCACCCAGCGAACGCAACGGAGTCACCTAGTGCAG” to “CGTTTCTCTCTCTTACCATGTTGTCAGTCGCGTTTCTGCTCGGAGTCACCTAGTGCAG”, the binding signal rises from 8100 fluorescence intensity (a.u.) to 11400 fluorescence intensity (a.u.).

Going from “CTCCACGTTGGTTTTGATTGTGCGCTGGAGGAGAGAGAACCGGAGTCACCTAGTGCAG” to “CACCTCCCGCCCTCTCTCCGGCCACACAAACCGCGGCTAACGGAGTCACCTAGTGCAG”, the binding signal falls from 8640 fluorescence intensity (a.u.) to 8250 fluorescence intensity (a.u.).

First: CTTCTCGTAGCCTCTTCAGATCGATCGCTTCGTCGTCATGCGGAGTCACCTAGTGCAG
Second: GGCTTTGCGTGTTGTCGAGTTCCCACATGCTATCGCCCAACGGAGTCACCTAGTGCAG
The binding signal of the first is higher: 9770 fluorescence intensity (a.u.) for the first, 9520 fluorescence intensity (a.u.) for the second.

First: CCACTTTTTTACAGTATTCACGAACAAATACACGATCTTCCGGAGTCACCTAGTGCAG
Second: CCCCACCGCCCACCGCCCACCGCCCACCCACCTCCGCACCCGGAGTCACCTAGTGCAG
The binding signal of the first is lower: 8980 fluorescence intensity (a.u.) for the first, 11600 fluorescence intensity (a.u.) for the second.

Compared with “CAACACGCCACTCGCCTCATGCCTCAGCTCCGCCCTGACACGGAGTCACCTAGTGCAG”, “ACAGAAAATCATTTAATTTTTCTTCTTTAGTTTCTGCTGTCGGAGTCACCTAGTGCAG” is lower in binding signal: 14300 fluorescence intensity (a.u.) for the first, 8940 fluorescence intensity (a.u.) for the second.

Going from “TTCACCATGGCGGACCTCACGCTTCTCGCCCGCTTCTTCACGGAGTCACCTAGTGCAG” to “ATCCACAAGTTAATATGGTCTTTATGGTTCAACCACTATACGGAGTCACCTAGTGCAG”, the binding signal falls from 14700 fluorescence intensity (a.u.) to 8690 fluorescence intensity (a.u.).

Compared with “GATTAGTGTGGTGGCATTCTTTTCTTCCATGATGCTACAGCGGAGTCACCTAGTGCAG”, “GACCTCGATTCGTCCATCCAGCTTCCACTACCCCTCCGCGCGGAGTCACCTAGTGCAG” is higher in binding signal: 9620 fluorescence intensity (a.u.) for the first, 10000 fluorescence intensity (a.u.) for the second.

First: GTGTTACCACTTTACTTGTACGGTTGTGTTCAGAAGTGGACGGAGTCACCTAGTGCAG
Second: CCCTCTCTACCGCTTTGCCTATTCAACAGTCAGGCTCACACGGAGTCACCTAGTGCAG
The binding signal of the first is higher: 9380 fluorescence intensity (a.u.) for the first, 9110 fluorescence intensity (a.u.) for the second.

Compared with “ATCTCCATCTTCACTGAGCATTTTGTCATTAACTACCTCTCGGAGTCACCTAGTGCAG”, “TCCTCCCGAGTCCAGTCCACTCCGCGACCGCGCCAACATGCGGAGTCACCTAGTGCAG” is lower in binding signal: 9960 fluorescence intensity (a.u.) for the first, 8030 fluorescence intensity (a.u.) for the second.

First: ATCTCCCTGCCGCAACCCTAGCCTCGCCGCCGCCGCCGCCCGGAGTCACCTAGTGCAG
Second: AACCTCAATTTTGTTTGTTTTGCCTTTTGGTTCAAATACTCGGAGTCACCTAGTGCAG
The binding signal of the first is higher: 9120 fluorescence intensity (a.u.) for the first, 8180 fluorescence intensity (a.u.) for the second.

Compared with “CTAATCACGGTCAAACTGCTTCGGTCAAACTTCACGTCCACGGAGTCACCTAGTGCAG”, “CCGTATCTGACTGGTGTATTTTGTGATTCTTTTTTTTATGCGGAGTCACCTAGTGCAG” is higher in binding signal: 11100 fluorescence intensity (a.u.) for the first, 12300 fluorescence intensity (a.u.) for the second.

Going from “GACCGGCTTAGCACCAACATTCCGGCTGGCCTCGCCCAATCGGAGTCACCTAGTGCAG” to “CTCGCCATGGCCTCGCCTATGCCAACGCCTACCCACCGCGCGGAGTCACCTAGTGCAG”, the binding signal rises from 8460 fluorescence intensity (a.u.) to 9010 fluorescence intensity (a.u.).

First: ATGTTTATCTATGTTGAATGCCGCGACTCATTTATTAGCTCGGAGTCACCTAGTGCAG
Second: TTTAATGTATCACACCGTTAATTTTTTTTCAACGTTTGACCGGAGTCACCTAGTGCAG
The binding signal of the first is higher: 9000 fluorescence intensity (a.u.) for the first, 8900 fluorescence intensity (a.u.) for the second.

Going from “CGACCCACTTGCATCTCCGTTGATCCATTACAATGTTTCTCGGAGTCACCTAGTGCAG” to “TCAAAATGTTCGACACCGTTGACTTTTTAACACATGTTTGCGGAGTCACCTAGTGCAG”, the binding signal rises from 10800 fluorescence intensity (a.u.) to 14400 fluorescence intensity (a.u.).

Going from “CCCGGCCTTCGCGCCAGTCTTCTCCATCGCCGCCGCCATCCGGAGTCACCTAGTGCAG” to “ACATTCAGACCAGCACCAACTGCATGCAGATTTGCATCATCGGAGTCACCTAGTGCAG”, the binding signal rises from 8450 fluorescence intensity (a.u.) to 8860 fluorescence intensity (a.u.).

Compared with “CTCACATTTGCACCGCACGAGGACAGGCAGCCGCTTTCAACGGAGTCACCTAGTGCAG”, “ATGATTTTGATTTTGTGCTCTGCTCTGCCTTTTGCTCCTACGGAGTCACCTAGTGCAG” is higher in binding signal: 10100 fluorescence intensity (a.u.) for the first, 13700 fluorescence intensity (a.u.) for the second.

First: GCTTCTCGTTCCGTCGTCGGCATTTCCTCCAGGATACCTGCGGAGTCACCTAGTGCAG
Second: CGTGTTGTTCTTTTTCTTCCTTCAACGCCGTAAATGGCCTCGGAGTCACCTAGTGCAG
The binding signal of the first is lower: 8040 fluorescence intensity (a.u.) for the first, 8660 fluorescence intensity (a.u.) for the second.

Going from “TTCCTTCGCTGTGACGTCGTTCGTTCTGGATTGGTTACACCGGAGTCACCTAGTGCAG” to “TTTTTCATCCTTTTTTTCTCTTTCCATTTTCCTCTAGAATCGGAGTCACCTAGTGCAG”, the binding signal falls from 9780 fluorescence intensity (a.u.) to 8280 fluorescence intensity (a.u.).

Compared with “ACTTTTTCTTCAAACTTCCAATTTTTCCATCACATGAAAACGGAGTCACCTAGTGCAG”, “TGGTTGCTGCCCATACTACCCACTCACCCACCCACCAGTCCGGAGTCACCTAGTGCAG” is lower in binding signal: 8680 fluorescence intensity (a.u.) for the first, 8510 fluorescence intensity (a.u.) for the second.

First: CGCTTCGCTGACGGTTGTGTGTTGGTGGGTGCAGGGGTGCCGGAGTCACCTAGTGCAG
Second: TCATTACATGATGAGGCGCCTCCTGCCATTCACCGTGCTCCGGAGTCACCTAGTGCAG
The binding signal of the first is higher: 12700 fluorescence intensity (a.u.) for the first, 8350 fluorescence intensity (a.u.) for the second.

Compared with “AAAAGTCAGTTTTCGTGTTCAATGTGTTGTGTTTAATTTCCGGAGTCACCTAGTGCAG”, “ACAGGGGCGCCTTTATTCCTGCACATCTAGGATTTGTACTCGGAGTCACCTAGTGCAG” is lower in binding signal: 8570 fluorescence intensity (a.u.) for the first, 8150 fluorescence intensity (a.u.) for the second.

Reference: publication PMC7819943, “Rice protein-binding microarrays: a tool to detect cis-acting elements near promoter regions in rice”
